Assay results from paper PMC7794610.
Results are given in words; binding and its absence hold for the method and conditions named. In cells and extracts the contact can be indirect. A yes stands for co-enrichment or nearness to the bait. Other partners may have been found. Blank lines part the entries; values can stand above or below the binder they belong to.

Target: MNT (rat, endogenous) (rat (endogenous in UR61-derived cells and C6))
Test: affinity purification with mass spectrometry; anti-MNT immunoprecipitation from URMT and URMax34 cells treated with 100 µM Zn2SO4 for 24 h; on-beads trypsin digestion, Q-Exactive, MaxQuant LFQ against IgG control

binding: binds
B1: CCDC6 (rat, endogenous) (protein, UniProt D4AEK9 1-470)
chain: MADSASESDTDAAGGGPAAMQSSCSATSGGSGGGGGGKSGGIVISPFRLEELTNRLASLQQENKVLKIELETYKLKCKALQEENRDLRKASVTIQARAEQEEEFISNTLFKKIQALQKEKETLAVNYEKEEEFLTNELSRKLMQLQHEKAELEQHLEQEQEFQVNKLMKKIKKLENDTISKQLTLEQLRREKIDLENTLEQEQEALVNRLWKRMDKLEAEKRILQEKLDQPVSAPPSPRDISMEIDSPENMMRHIRFLKNEVERLKKQLRAAQLQHSEKMAQYLEEERHMREENLRLQRKLQREMERREALCRQLSESESSLEMDDERYFNEMSAQGLRPRTVSSPIPYTPSPSSSRPISPGLSYASHTVGFTPPTSLTRAGTSYYNSPGLHVQHMGASHGITRPSPRRSSSPDKFKRPTPPPSPNTQSPVQPPPPPPPPPMQPAVPSAATTTQPAPSQAQHPVHPSSQP

binding: binds
B2: AMPD2 (rat, endogenous) (protein, UniProt Q02356 1-824)
chain: MASYPGPGKSKAKYPFKKRASLQASAAAPEARSGLGASPLQSARSLPGTAPCLKHFPLDLRTSMDGKCKEIAEELFSRSLAESELRSAPYEFPEESPIEQLEERRQRLERQISQDVKLEPDILLRAKQDFLKTDSDSDLQLYKEQGEGQGDRGLWERDVVLEREFQRVIISGEEKCGVPFTDLLDAAKSVVRALFIREKYMALSLQSFCPTTRRYLQQLAEKPLETRTYEQSPDTPVSADAPVHPPALEQHPYEHCEPSTMPGDLGLGLRMVRGVVHVYTRRDPDEHCPEVELPYPDLQEFVADVNVLMALIINGPIKSFCYRRLQYLSSKFQMHVLLNEMKELAAQKKVPHRDFYNIRKVDTHIHASSCMNQKHLLRFIKRAMKRHLEEIVHVEQGREQTLREVFESMNLTAYDLSVDTLDVHADRNTFHRFDKFNAKYNPIGESVLREIFIKTDNKISGKYFAHIIKEVMSDLEESKYQNAELRLSIYGRSRDEWDKLARWAVNHRVHSPNVRWLVQVPRLFDVYRTKGQLANFQEMLENIFLPLFEATVHPASHPELHLFLEHVDGFDSVDDESKPENHVFNLESPLPEAWVEEDNPPYAYYLYYTFANMAMLNHLRRQRGFHTFVLRPHCGEAGPIHHLVSAFMLAENISHGLLLRKAPVLQYLYYLAQIGIAMSPLSNNSLFLSYHRNPLPEYLSRGLMVSLSTDDPLQFHFTKEPLMEEYSIATQVWKLSSCDMCELARNSVLMSGFSHKVKSHWLGPNYTKEGPEGNDIRRTNVPDIRVGYRYETLCQELALITQAVQSEMLETIPEEVGIVMSPGP
